Reference: PubChem BioAssay (EPA / NIEHS)
Several values for one entry are separate records, joined by “and”; a condition that tells them apart may be missing. Equal entries are not always repeated. The shares of active, inactive and inconclusive entries below differ from those in the screen. Where the call is inconclusive, the potency comes from a doubtful curve fit. Some compounds were tested as several samples or in several runs, with calls that do not always agree. Activity calls are given as the source filed them. Rule for the calls: active = hit-call score of the fitted dose curve at least 0.9, where 1 is the maximum; inconclusive = response in the unintended direction; inactive = score below 0.9.

Protein sequences, listed by entry. Tags and fused reporters are not part of them. Lines headed by an entry give the natural chain unless they say otherwise; changes in a name come on top.
UniProt P19785, whole entry, looked up: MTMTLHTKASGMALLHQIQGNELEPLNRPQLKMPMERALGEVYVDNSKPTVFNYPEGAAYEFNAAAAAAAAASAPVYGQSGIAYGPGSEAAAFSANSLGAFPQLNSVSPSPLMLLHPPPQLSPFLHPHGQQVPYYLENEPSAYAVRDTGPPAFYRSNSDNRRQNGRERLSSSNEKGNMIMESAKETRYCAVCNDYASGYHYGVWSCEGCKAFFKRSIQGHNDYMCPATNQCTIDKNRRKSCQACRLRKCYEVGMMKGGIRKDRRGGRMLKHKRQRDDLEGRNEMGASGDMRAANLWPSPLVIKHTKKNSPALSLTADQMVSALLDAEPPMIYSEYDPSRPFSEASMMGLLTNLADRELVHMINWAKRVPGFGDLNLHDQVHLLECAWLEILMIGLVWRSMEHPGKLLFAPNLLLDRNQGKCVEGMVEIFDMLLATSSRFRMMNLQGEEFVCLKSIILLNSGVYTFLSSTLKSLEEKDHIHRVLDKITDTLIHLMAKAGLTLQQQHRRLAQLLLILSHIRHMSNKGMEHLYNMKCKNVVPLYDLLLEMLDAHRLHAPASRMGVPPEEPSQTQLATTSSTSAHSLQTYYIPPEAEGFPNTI
UniProt P19793: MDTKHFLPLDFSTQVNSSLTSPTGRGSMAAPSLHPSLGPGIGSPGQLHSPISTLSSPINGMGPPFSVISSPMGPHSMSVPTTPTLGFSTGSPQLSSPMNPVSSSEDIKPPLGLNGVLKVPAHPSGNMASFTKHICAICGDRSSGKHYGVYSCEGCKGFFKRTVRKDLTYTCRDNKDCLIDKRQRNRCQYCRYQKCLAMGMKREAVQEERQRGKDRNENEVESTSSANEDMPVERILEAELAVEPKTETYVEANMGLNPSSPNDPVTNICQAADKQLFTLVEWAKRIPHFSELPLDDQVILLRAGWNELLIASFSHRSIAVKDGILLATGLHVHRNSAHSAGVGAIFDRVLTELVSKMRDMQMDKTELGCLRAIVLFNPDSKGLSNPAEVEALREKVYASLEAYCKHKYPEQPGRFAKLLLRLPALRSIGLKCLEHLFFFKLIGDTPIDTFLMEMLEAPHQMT
UniProt P04637, whole entry, looked up: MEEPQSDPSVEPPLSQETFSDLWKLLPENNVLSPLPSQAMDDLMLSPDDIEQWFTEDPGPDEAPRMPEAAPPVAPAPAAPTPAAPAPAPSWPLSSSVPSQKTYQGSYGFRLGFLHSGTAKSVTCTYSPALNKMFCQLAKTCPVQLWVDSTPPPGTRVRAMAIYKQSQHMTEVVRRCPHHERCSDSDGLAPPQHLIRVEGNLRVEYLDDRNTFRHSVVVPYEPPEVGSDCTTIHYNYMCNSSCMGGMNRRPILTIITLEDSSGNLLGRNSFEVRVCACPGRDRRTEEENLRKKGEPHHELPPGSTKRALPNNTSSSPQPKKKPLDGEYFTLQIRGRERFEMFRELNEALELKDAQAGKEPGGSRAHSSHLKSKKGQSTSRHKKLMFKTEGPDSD
UniProt P10275: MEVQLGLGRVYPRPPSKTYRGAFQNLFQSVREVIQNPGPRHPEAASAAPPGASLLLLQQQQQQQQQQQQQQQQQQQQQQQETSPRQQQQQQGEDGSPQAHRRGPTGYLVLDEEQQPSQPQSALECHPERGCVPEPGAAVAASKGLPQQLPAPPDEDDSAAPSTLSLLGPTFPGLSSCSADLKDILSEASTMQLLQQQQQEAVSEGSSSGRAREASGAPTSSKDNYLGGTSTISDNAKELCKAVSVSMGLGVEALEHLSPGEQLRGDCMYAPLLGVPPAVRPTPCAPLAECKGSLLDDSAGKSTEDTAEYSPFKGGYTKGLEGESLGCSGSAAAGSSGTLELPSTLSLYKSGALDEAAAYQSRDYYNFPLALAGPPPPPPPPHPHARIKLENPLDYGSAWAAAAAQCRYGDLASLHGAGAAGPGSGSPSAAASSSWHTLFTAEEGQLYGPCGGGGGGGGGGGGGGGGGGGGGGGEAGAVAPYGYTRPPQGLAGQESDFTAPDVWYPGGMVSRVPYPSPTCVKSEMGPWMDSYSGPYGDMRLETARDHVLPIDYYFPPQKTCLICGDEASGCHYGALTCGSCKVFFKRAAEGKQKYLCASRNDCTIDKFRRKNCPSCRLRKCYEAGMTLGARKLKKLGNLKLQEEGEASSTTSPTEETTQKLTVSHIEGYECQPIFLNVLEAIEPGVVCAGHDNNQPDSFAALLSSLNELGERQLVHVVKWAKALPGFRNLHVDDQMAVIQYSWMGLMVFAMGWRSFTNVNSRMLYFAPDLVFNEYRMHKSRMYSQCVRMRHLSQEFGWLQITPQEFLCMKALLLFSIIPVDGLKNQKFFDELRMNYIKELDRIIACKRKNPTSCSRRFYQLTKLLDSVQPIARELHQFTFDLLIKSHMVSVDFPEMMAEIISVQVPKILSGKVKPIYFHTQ
UniProt Q96RI1: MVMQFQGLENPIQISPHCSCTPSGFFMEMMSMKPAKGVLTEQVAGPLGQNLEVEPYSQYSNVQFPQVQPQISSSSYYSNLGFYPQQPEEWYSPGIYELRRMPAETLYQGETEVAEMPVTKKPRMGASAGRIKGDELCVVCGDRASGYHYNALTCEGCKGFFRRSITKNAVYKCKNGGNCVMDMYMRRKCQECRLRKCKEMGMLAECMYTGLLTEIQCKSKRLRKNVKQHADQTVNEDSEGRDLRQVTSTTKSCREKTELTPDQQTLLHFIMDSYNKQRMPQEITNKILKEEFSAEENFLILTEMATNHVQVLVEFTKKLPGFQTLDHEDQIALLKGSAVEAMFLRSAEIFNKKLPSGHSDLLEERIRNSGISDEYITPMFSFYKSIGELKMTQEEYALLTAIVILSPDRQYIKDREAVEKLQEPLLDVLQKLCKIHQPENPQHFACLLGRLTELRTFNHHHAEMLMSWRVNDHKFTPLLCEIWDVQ

Tests used:
[1] = molecular target: mouse Estrogen Receptor alpha (Era), Esr1 (gene 13982) (UniProt P19785); experiment: NVS_NR_mERa: NovaScreen (NVS) Nuclear Receptor Binding Assay for mouse Estrogen Receptor alpha (Era) (AID 2283378);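 note: hit means loss of bound radioligand signal relative to DMSO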
How it was run: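 Cell-free radioligand binding with extracted mouse Era protein; competitive displacement of radiolabelled ligand, read by filter-based scintillation counting 18 hours after dosing. Loss of signal versus DMSO baseline taken as binding; single screening concentration 25 uM, actives followed in concentration series.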

[2] = molecular target: Retinoic acid receptor RXR-alpha (Homo sapiens) (UniProt P19793); experiment: OT_NURR1_NURR1RXRa_0480: Odyssey Thera (OT) 8-hour HEK293T Protein Complementation Assay for Nurr1/retinoid X receptor (RXR) (AID 2283385)
How it was run: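 HEK293T cells expressing Nurr1 and RXRα fused to reporter fragments were dosed with compound for 8 hours. Complex formation was read as fluorescence intensity and analysed as gain of signal against DMSO as baseline.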

[3] = molecular target: Retinoic acid receptor RXR-alpha (Homo sapiens) (UniProt P19793); experiment: OT_NURR1_NURR1RXRa_1440: Odyssey Thera (OT) 24-hour HEK293T Protein Complementation Assay for Nurr1/retinoid X receptor (RXR) (AID 2283386)
How it was run: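 HEK293T cells were dosed with compound and read 24 h later by fluorescence intensity in a protein-fragment complementation format, where Nurr1–RXRα interaction reconstitutes a split reporter. Activity was fitted as gain of signal relative to DMSO baseline.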

[4] = TOX21_p53_BLA_p2_viability: Viability Assessment in the Tox21 HCT-116 p53 Agonism Beta-lactamase Assay, Phase 2 (AID 2283591);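 note: compound exposure lasted 16 h at 37 °C; actives lower the ATP signal meaning cytotoxicity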
How it was run: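 Cytotoxicity readout: CellTiter-Glo ATP luminescence, 30 min at room temperature, after the beta-lactamase read. Cells were HCT116 exposed 16 h at 37C to compounds pin-transferred at 217-fold dilution from DMSO stocks.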

[5] = molecular target: Cellular tumor antigen p53 (Homo sapiens) (UniProt P04637); experiment: TOX21_p53_BLA_p3_ratio: Tox21 HCT-116 p53 Agonism Beta-lactamase Assay, Ratio, Phase 3 (AID 2283596)
How it was run: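 HCT116 p53-bla cells (4000/well) given compound in DMSO (217-fold dilution) after 5 h, incubated 16 h at 37C. CCF4-AM substrate 2 h at room temperature; 460/530 nm emission ratio, gain fitted against DMSO.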

[6] = TOX21_p53_BLA_p3_viability: Viability Assessment in the Tox21 HCT-116 p53 Agonism Beta-lactamase Assay, Phase 3 (AID 2283593);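 note: cells exposed to compound for 16 h before reading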
How it was run: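 Cellular ATP was quantified by CellTiter-Glo luminescence, read after 30 min at room temperature. Beforehand, HCT116 cells (4000/well) received compound 5 h post-seeding, 217-fold diluted from DMSO, then incubated 16 h at 37C.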

[7] = TOX21_p53_BLA_p4_viability: Viability Assessment in the Tox21 HCT-116 p53 Agonism Beta-lactamase Assay, Phase 4 (AID 2283597);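 note: hits lower the luminescence signal meaning cytotoxicity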
How it was run: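 HCT116 p53-bla cells (4000/well) rested 5 h at 37C, then received compounds in DMSO (217-fold dilution) for 16 h at 37C, 5% CO2. CellTiter-Glo was added after the CCF4-AM read, and luminescence was read after 30 min at room temperature.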

[8] = molecular target: Cellular tumor antigen p53 (Homo sapiens) (UniProt P04637); experiment: TOX21_p53_BLA_p5_ratio: Tox21 HCT-116 p53 Agonism Beta-lactamase Assay, Ratio, Phase 5 (AID 2283599)
How it was run: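 Beta-lactamase reporter ratio (blue 460 nm over green 530 nm, 405 nm excitation) after 2 h CCF4-AM loading, in HCT-116 cells exposed 16 h at 37 C to compounds pinned at 217-fold dilution. Increases relative to DMSO baseline scored.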

[9] = TOX21_p53_BLA_p5_viability: Viability Assessment in the Tox21 HCT-116 p53 Agonism Beta-lactamase Assay, Phase 5 (AID 2283600)
How it was run: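 Cells were plated at 4000/well, rested 5 h at 37C, then given compounds in DMSO (217-fold dilution) for 16 h at 37C, 5% CO2. Following the CCF4-AM beta-lactamase read, CellTiter-Glo was added and luminescence was read after 30 min at room temperature.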

[10] = molecular target: Cellular tumor antigen p53 (Homo sapiens) (UniProt P04637); experiment: TOX21_p53_BLA_p4_ratio: Tox21 HCT-116 p53 Agonism Beta-lactamase Assay, Ratio, Phase 4 (AID 2283601)
How it was run: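 Signal is the blue/green (460nm/530nm) ratio of cleaved versus uncleaved CCF4-AM substrate, read after 2 h substrate loading. Cells were HCT116 carrying the p53-responsive beta-lactamase reporter, dosed 16 h at 37C, 5% CO2; CellTiter-Glo measured in parallel.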

[11] = ATG_XTT_Cytotoxicity: Cytotoxicity Assessment in the Attagene TRANS-FACTORIAL HepG2 Assay (AID 2283584);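 for AC50: cells exposed to compound for 24 h before reading; active means loss of viability signal versus DMSO baseline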
How it was run: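 HepG2 human liver cells, transiently transfected with multiple GAL4-UAS reporter units, were dosed and read at 24 h by XTT as cell number. Loss of signal was fitted relative to DMSO negative control baseline.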

[12] = molecular target: Cellular tumor antigen p53 (Homo sapiens) (UniProt P04637); experiment: TOX21_p53_BLA_p2_ratio: Tox21 HCT-116 p53 Agonism Beta-lactamase Assay, Ratio, Phase 2 (AID 2283592)
How it was run: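 HCT116 cells carrying a p53-responsive beta-lactamase reporter were plated, incubated 5 h at 37C, then dosed with compounds in DMSO (217-fold dilution) for 16 h. CCF4-AM substrate was added for 2 h at room temperature; the 460/530 nm emission ratio gave gain-of-signal activity relative to DMSO.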

[13] = molecular target: Agonist Androgen Response Element (ARE), AR (gene 367) (UniProt P10275); experiment: OT_AR_ARELUC_AG_1440: Odyssey Thera (OT) 24-hour CHO-K1 Luciferase Assay for Agonist Androgen Response Element (ARE) (AID 2283379)
How it was run: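 Agonist mode, 24 h exposure in CHO-K1 ARE-luciferase cells; values reflect luminescence induction over vehicle.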

[14] = molecular target: Bile acid receptor (Homo sapiens) (UniProt Q96RI1); experiment: OT_FXR_FXRSRC1_0480: Odyssey Thera (OT) 8-hour HEK293T Protein-Complementation Assay for Farnesoid X receptor/SRC-1 Co-activator (AID 2283383)
How it was run: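 HEK293T cells expressing FXR and SRC-1 fused to reporter fragments were dosed with compound for 8 h; fluorescence from the reconstituted reporter marked co-activator recruitment. Gain of signal was fitted against the DMSO baseline.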

[15] = molecular target: Bile acid receptor (Homo sapiens) (UniProt Q96RI1); experiment: OT_FXR_FXRSRC1_1440: Odyssey Thera (OT) 24-hour HEK293T Protein-Complementation Assay for Farnesoid X receptor/SRC-1 Co-activator (AID 2283384)
How it was run: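 HEK293T cells were dosed with compound and read 24 h later by fluorescence intensity from protein-fragment complementation reporting FXR/SRC-1 co-activator interaction. Gain of signal was fitted relative to DMSO negative control as baseline.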

CCOP(=S)(OCC)SCSP(=S)(OCC)OCC
AC50 [1]: inconclusive: 25 µM
outcome [2]: inactive
AC50 [3]: inconclusive: 5.41 µM and inconclusive: 11.4 µM
AC50 [4]: inconclusive: 46.1 µM
AC50 [5]: inconclusive: 46.1 µM

CCCN(CCC)N=O
outcome [1]: inactive
outcome [2]: inactive
AC50 [4]: inconclusive: 46.1 µM
AC50 [6]: inconclusive: 45.6 µM
outcome [7]: inactive
AC50 [8]: inconclusive: 45.6 µM
AC50 [9]: inconclusive: 46.1 µM and inconclusive: 45.6 µM
AC50 [10]: inconclusive: 45.6 µM

O=c1oc2ccccc2c(O)c1C(CC(O)c1ccc(-c2ccc(Br)cc2)cc1)c1ccccc1 (centres undefined)
AC50 [1]: inconclusive: 6.18 µM
outcome [11]: inactive
AC50 [4]: active: 6.09 µM
outcome [12]: inactive
AC50 [6]: active: 15.2 µM
AC50 [5]: active: 43.4 µM and active: 22.3 µM
AC50 [7]: active: 10.4 µM
AC50 [8]: active: 27.2 µM and active: 14.3 µM
AC50 [9]: active: 19.3 µM
AC50 [10]: active: 20.4 µM

COc1cc(OC)c(OC)cc1C=O
AC50 [1]: inconclusive: 44.7 µM
AC50 [11]: inconclusive: 0.126 µM
outcome [10]: inactive

CC(O)(CS(=O)(=O)c1ccc(F)cc1)C(=O)Nc1ccc(C#N)c(C(F)(F)F)c1 (centres undefined)
AC50 [1]: active: 0.026 µM
AC50 [2]: inconclusive: 29 µM
outcome [3]: inactive
outcome [8]: inactive

O=C(Cl)OCCOCCOC(=O)Cl
AC50 [1]: active: 6.49 µM
AC50 [6]: inconclusive: 46.1 µM
AC50 [7]: inconclusive: 46.1 µM
AC50 [8]: inconclusive: 46.1 µM
outcome [9]: inactive
outcome [10]: inactive

C[C@]12CCC(=O)C=C1CC[C@@H]1[C@@H]2CC[C@]2(C)C(=O)CC[C@@H]12
AC50 [1]: inconclusive: 25 µM and inconclusive: 371 nM
AC50 [8]: inconclusive: 23 µM
outcome [9]: inactive

CCCCCCCCCCCCCCC(Br)C(=O)O (centres undefined)
AC50 [1]: inconclusive: 40 µM
outcome [4]: inactive
AC50 [12]: inconclusive: 46.1 µM
AC50 [6]: active: 41.4 µM
AC50 [5]: active: 75.3 µM
AC50 [8]: active: 70.6 µM
AC50 [9]: active: 70.3 µM
outcome [10]: inactive

COP(=O)(OC)Oc1ccc([N+](=O)[O-])cc1
outcome [1]: inactive
AC50 [4]: inconclusive: 46.1 µM
AC50 [7]: inconclusive: 0.528 µM

CCOC(=O)/C=C(C)/C=C/C[C@@H](C)CCCC(C)C
AC50 [1]: inconclusive: 25 µM
AC50 [4]: inconclusive: 40.9 µM
outcome [4]: inactive
AC50 [6]: active: 58.3 µM and inconclusive: 43.2 µM
outcome [9]: inactive

O=[N+]([O-])c1ccc(Nc2ccccc2)cc1
outcome [1]: inactive
outcome [11]: inactive
AC50 [4]: active: 32.5 µM and inconclusive: 804 nM
AC50 [6]: active: 61 µM
outcome [6]: inactive
AC50 [5]: active: 42.4 µM and active: 90.9 µM
AC50 [7]: active: 82.4 µM
outcome [7]: inactive
AC50 [8]: active: 52.5 µM and active: 84.9 µM
AC50 [9]: active: 66.3 µM
AC50 [10]: active: 43.1 µM

CC(C)c1ccc(CO)cc1
AC50 [1]: inconclusive: 6.59 µM
AC50 [11]: inconclusive: 100 µM
outcome [4]: inactive
AC50 [6]: inconclusive: 46.1 µM
outcome [6]: inactive
outcome [8]: inactive

CCOCn1c(-c2ccc(Cl)cc2)c(C#N)c(Br)c1C(F)(F)F
outcome [1]: inactive
AC50 [2]: active: 9.59 µM
AC50 [3]: active: 25.2 µM

CC(C)C(=O)OCC(C)(C)C(OC(=O)C(C)C)C(C)C (centres undefined)
outcome [1]: inactive
AC50 [2]: inconclusive: 1.73 µM and inconclusive: 50 µM
outcome [3]: inactive
AC50 [4]: inconclusive: 46.1 µM and inconclusive: 81.5 µM
AC50 [12]: inconclusive: 46.1 µM
AC50 [6]: inconclusive: 86.2 µM and active: 46.4 µM
AC50 [7]: inconclusive: 87.1 µM
AC50 [9]: inconclusive: 46.1 µM

CO/C=C(/C(=O)OC)c1ccccc1Oc1cc(Oc2ccccc2C#N)ncn1
AC50 [1]: inconclusive: 25 µM
AC50 [2]: inconclusive: 93.7 µM [middle of 5 runs]
AC50 [11]: inconclusive: 1 µM
outcome [7]: inactive
outcome [9]: inactive

O=[N+]([O-])C(Br)(CO)CO
AC50 [13]: inconclusive: 50 µM
AC50 [14]: inconclusive: 50 µM
AC50 [15]: inconclusive: 50 µM
AC50 [2]: inconclusive: 4.55 µM and inconclusive: 9.92 µM
AC50 [3]: inconclusive: 2.14 µM

OC(c1ccc(Cl)cc1)(c1ccc(Cl)cc1)c1cccnc1
AC50 [1]: inconclusive: 14.9 µM
AC50 [11]: active: 67.7 µM
AC50 [4]: active: 46.1 µM
AC50 [12]: active: 44.3 µM
outcome [6]: inactive
AC50 [7]: active: 60.5 µM
AC50 [8]: active: 72.5 µM
AC50 [10]: active: 70.9 µM
